These are yes or no findings as the source states them, for the method shown. In cells and extracts the contact can be indirect. A yes stands for co-enrichment or nearness to the bait. Other partners may have been found. Where a sequence is shown, tags or fusion partners need not be part of it.
Target: T1, HA-FBP1 (mouse) (UniProt Q9QXD6)
T1 sequence: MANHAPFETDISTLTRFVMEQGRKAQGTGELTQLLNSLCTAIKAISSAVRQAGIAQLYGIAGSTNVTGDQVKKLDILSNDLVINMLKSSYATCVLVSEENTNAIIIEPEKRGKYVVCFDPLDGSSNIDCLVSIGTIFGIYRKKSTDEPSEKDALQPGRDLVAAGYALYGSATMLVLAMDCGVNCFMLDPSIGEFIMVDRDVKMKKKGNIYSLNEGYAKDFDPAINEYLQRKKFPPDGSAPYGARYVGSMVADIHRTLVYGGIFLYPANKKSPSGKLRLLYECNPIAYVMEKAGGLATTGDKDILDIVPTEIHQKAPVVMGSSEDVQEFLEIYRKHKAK
Assay: affinity purification with mass spectrometry

Chains of the proteins cited; added tags and fusions are not shown. Lines headed by an entry give the natural chain unless they say otherwise; changes in a name come on top.
UniProt P63330: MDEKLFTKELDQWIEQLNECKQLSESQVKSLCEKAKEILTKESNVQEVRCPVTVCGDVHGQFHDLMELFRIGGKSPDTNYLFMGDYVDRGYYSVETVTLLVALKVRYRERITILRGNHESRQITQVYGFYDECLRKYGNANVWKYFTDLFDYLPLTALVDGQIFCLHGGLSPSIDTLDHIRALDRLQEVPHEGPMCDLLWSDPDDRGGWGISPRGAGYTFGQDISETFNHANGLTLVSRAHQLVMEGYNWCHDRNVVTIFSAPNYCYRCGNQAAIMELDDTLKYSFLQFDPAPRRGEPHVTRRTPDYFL

PP2A-C (mouse liver) (from UniProt P63330) (enzyme)
binding: binds

B1: ALDOB (mouse liver) (enzyme, UniProt Q91Y97 1-364)
chain: MAHRFPALTPEQKKELSEIAQRIVANGKGILAADESVGTMGNRLQRIKVENTEENRRQFRELLFSVDNSISQSIGGVILFHETLYQKDSQGNLFRNVLKEKGIVVGIKLDQGGAPLAGTNKETTIQGLDGLSERCAQYKKDGVDFGKWRAVLRIADQCPSSLAIQENANALARYASICQQNGLVPIVEPEVLPDGDHDLEHCQYVSEKVLAAVYKALNDHHVYLEGTLLKPNMVTAGHACTKKYTPEQVAMATVTALHRTVPAAVPGICFLSGGMSEEDATLNLNAINRCPLPRPWKLSFSYGRALQASALAAWGGKAANKKATQEAFMKRAMANCQAAQGQYVHTGSSGAAATQSLFTASYTY
binding: binds
